# Measured values: the supplement of paper PMC9135407
# Where “and” joins values, the source holds several entries; their conditions need not be identical. Identical values can stand only once. Counter-ions that a name gives are not always drawn. ± gives the standard deviation of the averaged measurements. This is one part of the list. Baselines shift from plate to plate; read single values as rough.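 Assay uses culture-activated primary human stellate myofibroblasts; lipid droplet recovery indicates inactivation. Measured: proportion of Hoechst-counted cells over a plate-specific Bodipy cutoff, duplicate wells, DMSO and nortriptyline as per-plate negative and positive controls. A hit scores, control-normalized, above the plate's top-tenth-percentile nortriptyline wells or ranks among its three best wells. Final well concentrations not reported.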
# Tested on: primary human hepatic stellate cells (donor 1)
# Assay: percent Bodipy-positive cells; higher = more lipid droplet accumulation
# Settings: 48 h
# Description: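 Primary lipid accumulation screen in primary human hepatic stellate cell myofibroblasts (donor 1, passage 8) in 384-well plates. 100 nL of library compound was pin-transferred into 30 µL medium in duplicate, and cells were treated for 48 h. The 'Scaled' score combines distance from plate baseline, toxicity and reproducibility penalties, and is normalised to nortriptyline (positive) and DMSO (negative) controls on each plate. A hit is defined as scaled >0.85 or among the top 3 wells per plate.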
# [1] = library stock concentration: 80 uM
# [2] = library stock concentration: 400 uM
# [3] = library stock concentration: 2 mM
# [4] = library stock concentration: 10 mM
# [5] = library stock concentration: 1 mM
# [6] = library stock concentration: 3.33 mM
# [7] = library stock concentration: 4.9 mM
smiles,measurement,setting,value
C=CC(=O)Nc1cc(-n2c(=O)ccc3cnc4ccc(-c5ccc(NS(C)(=O)=O)cc5)cc4c32)ccc1C,percent Bodipy-positive cells,[1],8.84 ± 1.9%
same,percent Bodipy-positive cells,[2],11.3 ± 3%
same,percent Bodipy-positive cells,[3],6.91 ± 2.6%
same,percent Bodipy-positive cells,[4],31.7 ± 18%
C(=C/CCNC)(/c1c2cccc1)\c3c(cccc3)CC2.Cl [Nortriptyline hydrochloride],percent Bodipy-positive cells,[4],100%
CCCCC[C@H](O)/C=C/[C@H]1C(=O)C[C@H](O)[C@@H]1C/C=C\CCCC(=O)NC(CO)CO [Prostaglandin D2 serinol amide],percent Bodipy-positive cells,[5],9.98 ± 0.56%
Cc1ccc(F)c(NC(=O)Nc2ccc(-c3cccc4[nH]nc(N)c34)cc2)c1,percent Bodipy-positive cells,[4],67.8 ± 1.3%
Cc1cc(=O)[nH]c(=S)[nH]1 [Methylthiouracil],percent Bodipy-positive cells,[6],11.6 ± 6.2%
same,percent Bodipy-positive cells,[4],28.3% and 44%
O=c1cc(N2CCNCC2)oc2c(-c3ccccc3)cccc12,percent Bodipy-positive cells,[4],78.292 ± 0.024%
CCOc1ccc(Nc2nc(-c3c(C)nc4ccccn34)cs2)cc1,percent Bodipy-positive cells,[4],39.6 ± 4.5%
CN1CCC(=C2c3ccccc3CCc3sccc32)CC1.O=C(O)/C=C\C(=O)O [Pizotyline],percent Bodipy-positive cells,[4],80.4 ± 6.2%
Cc1cc(I)ccc1Nc1c(C(=O)NOCC2CC2)cc(F)c(F)c1F,percent Bodipy-positive cells,[4],23.3 ± 14%
CC(=O)[C@H]1CC[C@H]2[C@@H]3C=CC4=CC(=O)CC[C@@]4(C)[C@@H]3CC[C@]12C [Dydrogesterone],percent Bodipy-positive cells,,10.6 ± 1.4%
same,percent Bodipy-positive cells,[6],17.6 ± 3.1%
same,percent Bodipy-positive cells,[4],43.7 ± 14%
Nc1nc(CC(=O)Nc2ccc(CCNC[C@H](O)c3ccccc3)cc2)cs1 [Mirabegron],percent Bodipy-positive cells,[6],15.3 ± 8.9%
same,percent Bodipy-positive cells,[4],54.6 ± 5%
NC[C@@H]1O[C@H](O[C@H]2[C@@H](O)[C@H](O[C@@H]3[C@@H](O)[C@H](N)C[C@H](N)[C@H]3O[C@H]3O[C@H](CO)[C@@H](O)[C@H](O)[C@H]3N)O[C@@H]2CO)[C@H](N)[C@@H](O)[C@@H]1O [Paromomycin sulfate],percent Bodipy-positive cells,,10 ± 0.21%
CC[C@]1(O)C[C@H]2CN(CCc3c([nH]c4ccccc34)[C@@](C(=O)OC)(c3cc4c(cc3OC)N(C=O)[C@H]3[C@@](O)(C(=O)OC)[C@H](OC(C)=O)[C@]5(CC)C=CCN6CC[C@]43[C@@H]65)C2)C1 [Vincristine],percent Bodipy-positive cells,[6],50.7 ± 0.43%
same,percent Bodipy-positive cells,[4],73.4 ± 5.2%
COc1ccccc1OCC(O)CO (stereo unspecified) [Guaifenesin],percent Bodipy-positive cells,,11.2 ± 7.1%
same,percent Bodipy-positive cells,[6],6.93 ± 5.4%
same,percent Bodipy-positive cells,[4],29.4% and 10.5%
Cc1c(N(C)C)c(=O)n(-c2ccccc2)n1C [Aminopyrine],percent Bodipy-positive cells,library stock concentration: 8.6 mM,13.6 ± 2.8%
Cc1c(N(C)C)c(=O)n(-c2ccccc2)n1C [Aminophenazone],percent Bodipy-positive cells,[4],14.3 ± 0.88%
Cc1c(N(C)C)c(=O)n(-c2ccccc2)n1C [Amidopyrine],percent Bodipy-positive cells,,29.1 ± 2.4%
same,percent Bodipy-positive cells,[6],8.39 ± 6.8%
same,percent Bodipy-positive cells,[4],15 ± 4.2%
Oc1c(Cl)cc(Cl)c(Cl)c1Cc1c(O)c(Cl)cc(Cl)c1Cl [Hexachlorophene],percent Bodipy-positive cells,[7],12.3 ± 3.8%
same,percent Bodipy-positive cells,[4],37.5 ± 12%
Oc1c(Cl)cc(Cl)c(Cl)c1Cc1c(O)c(Cl)cc(Cl)c1Cl,percent Bodipy-positive cells,[4],55.2 ± 4%
CCCCC[C@H](O)/C=C/C1=C(CCCCCCC(=O)O)C(=O)CC1 [Prostaglandin B1],percent Bodipy-positive cells,[5],12.1% and 12.3%
CCOc1cc2ncc(C#N)c(Nc3ccc(F)c(Cl)c3)c2cc1NC(=O)/C=C/CN(C)C [Pelitinib (EKB-569)],percent Bodipy-positive cells,[4],98.8 ± 1.8%
CCOc1cc2ncc(C#N)c(Nc3ccc(F)c(Cl)c3)c2cc1NC(=O)/C=C/CN(C)C,percent Bodipy-positive cells,[1],22.6 ± 2.7%
same,percent Bodipy-positive cells,[2],13 ± 2.8%
same,percent Bodipy-positive cells,[3],40.7 ± 6.1%
CCCc1c(-c2ccc(O)cc2)nn(-c2ccc(O)cc2)c1-c1ccc(O)cc1 [Propylpyrazole Triol],percent Bodipy-positive cells,[5],8.06 ± 1.5%
"CCCc1c(-c2ccc(O)cc2)nn(-c2ccc(O)cc2)c1-c1ccc(O)cc1 [1,3,5-tris(4-hydroxyphenyl)-4-propyl-1H-pyrazole]",percent Bodipy-positive cells,[4],45.3 ± 16%
NC(=O)c1ccc2[nH]ccc2c1,percent Bodipy-positive cells,[2],20.7 ± 1.3%
same,percent Bodipy-positive cells,[3],14 ± 4.4%
C=C1C(=O)[C@]23[C@H](O)[C@H]1CC[C@H]2[C@@]12CO[C@]3(O)[C@@H](O)[C@@H]1C(C)(C)CC[C@@H]2O [Oridonin],percent Bodipy-positive cells,[6],15.3 ± 5.4%
same,percent Bodipy-positive cells,[4],99.55 ± 0.63%
Cc1ccc(-c2ccc3c(ccc4sc5c(c43)NC[C@@H](C)NC5=O)n2)cn1,percent Bodipy-positive cells,[4],93.9 ± 1.5%
CC1(C)CC(=O)c2c(C(F)(F)F)nn(-c3ccc(C(N)=O)c(N[C@H]4CC[C@H](OC(=O)CN)CC4)c3)c2C1,percent Bodipy-positive cells,[4],79.68 ± 0.55%
Cc1cc(/C=C/C#N)cc(C)c1Nc1ccnc(Nc2ccc(C#N)cc2)n1 [Rilpivirine],percent Bodipy-positive cells,[6],32.6 ± 15%
same,percent Bodipy-positive cells,[4],64.9 ± 26%
O=C(Nc1cc(C(F)(F)F)cc(C(F)(F)F)c1)c1cc(Cl)ccc1O,percent Bodipy-positive cells,[4],98.8 ± 1.6%
Cc1nc(N)sc1-c1ccnc(Nc2ccc(N3CCOCC3)cc2)n1,percent Bodipy-positive cells,[4],98.2 ± 1.2%
CCOC(=O)C1=C(COCCN)NC(C)=C(C(=O)OC)C1c1ccccc1Cl (stereo unspecified) [Amlodipine besylate],percent Bodipy-positive cells,library stock concentration: 3.5 mM,2.32 ± 1.6%
CCOC(=O)C1=C(COCCN)NC(C)=C(C(=O)OC)C1c1ccccc1Cl (stereo unspecified) [Amlodipine],percent Bodipy-positive cells,[6],56.6 ± 8.8%
same,percent Bodipy-positive cells,[7],9.34 ± 2.2%
same,percent Bodipy-positive cells,[4],91.5 ± 6.3%
CC(=O)N1CCCC1C(=O)O (stereo unspecified) [N-acetylproline],percent Bodipy-positive cells,[4],38.3 ± 13%
Oc1ccc(/C=C/c2cc(O)cc(O)c2)cc1 [trans-Resveratrol],percent Bodipy-positive cells,[5],13.9 ± 3.9%
Oc1ccc(/C=C/c2cc(O)cc(O)c2)cc1 [Resveratrol],percent Bodipy-positive cells,,45.1 ± 9.5%
same,percent Bodipy-positive cells,[1],46.9 ± 10%
same,percent Bodipy-positive cells,[2],46.2 ± 8.4%
same,percent Bodipy-positive cells,[3],48.8 ± 7.8%
same,percent Bodipy-positive cells,[6],18.1 ± 5.5%
same,percent Bodipy-positive cells,library stock concentration: 21.9 mM,9.55 ± 0.18%
